# According to PubChem BioAssay AID2417 (National Center for Advancing Translational Sciences (NCATS), 2010):
# In all, about 140,000 compounds went through this assay and about 4,300 (3.1%) were called active. The inconclusive results got no clear call from the source; some entries with a clear call stand among them for comparison.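 Rule for the calls: active = readout at or below -70, meaning at least 70% loss of cells showing the perinucleolar compartment, a nuclear body marking cancer cells; inconclusive = readout between -30 and a set limit; inactive = the rest.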
# Experiment: High Content Assay for Compounds that inhibit the Assembly of the Perinucleolar Compartment;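 note: plate controls were DMSO wells for no effect and camptothecin positive control wells for full effect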
# Conditions: PC3M PTB-GFP, PNC prevalence imaging, 16 h; at 10 µM; stronger effect = lower value
# Method in brief: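 PC3M cells stably expressing PTB-GFP, 750–1000 cells/well, treated 16 h at 37 °C with compound (23 nl of library stock), in duplicate. After paraformaldehyde fixation and Hoechst stain, imaged at 20x; PNC prevalence scored by image analysis.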
row,SMILES,"activity change (PNC), negative = inhibition"
1,COc1ccc(C(=O)N/N=C/c2sc3ccccc3c2O)cc1,inconclusive: -45.3%
2,c1ccc(CSc2ncnc3c2cnn3-c2ccccc2)cc1,inactive: -10.8%
3,COc1ccnc(N=CNOCc2ccc(C)cc2)c1C#N,inconclusive: -63.6%
4,C/C(=N\NC(=O)CCn1nc(C)cc1C)C(C)(C)C,inconclusive: -35.3%
5,Cc1cc(Br)ccc1OCc1nc(-c2cccnc2)no1,inconclusive: -41.1%
6,Cc1ccc(C(=O)OCCc2sc[n+](Cc3ccccc3)c2C)cc1,inconclusive: -35.9%
7,CCOc1ccc(N2C(=O)c3ccccc3C2O)cc1 (stereo not given),inconclusive: -43.1%
8,O=C(OCC(=O)N1CCc2ccccc21)c1ccc[n+]([O-])c1,inactive: -18.9%
9,COc1ccc(NC(=O)Cn2nnc(-c3ccccc3NC(=O)C3CC3)n2)cc1,active: -104%
10,COc1ccc2oc(C(=O)OCC(=O)NCCN3C(=O)CSC3=O)c(C)c2c1,inconclusive: -35.4%
11,Nc1cccc(CCc2nc3ccccc3[nH]2)c1,inactive: -19.2%
12,Cc1cc2n(n1)C(c1cn(-c3ccccc3)nc1C)Nc1c(C)cccc1-2 (stereo not given),inconclusive: -36.5%
13,Cc1cccc(C)c1NC(=S)NCCCN1CCCC1=O,inconclusive: -50%
14,Cc1ccc(S(=O)(=O)N2CCCOC2CNC(=O)C(=O)NCCCn2ccnc2)cc1 (stereo not given),inconclusive: -30.8%
15,CCOC(=O)c1c(C)[nH]c(C(=O)COC(=O)CSC)c1C,active: -84.7%
16,CNc1nc(N2CCc3ccccc32)ncc1F,inconclusive: -43.5%
17,O=C(CN1C(=O)c2ccccc2S1(=O)=O)NCc1ccccn1,inactive: -24.8%
18,Cc1ccc(C)c(S(=O)(=O)NCc2ccc(C(=O)N3CCCCC3C)cc2)c1 (stereo not given),inconclusive: -50.2%
19,NC1=NC(=O)CC(C(=O)NCc2ccccc2)S1 (stereo not given),inactive: -10.9%
20,O=C(CN1C(=O)NC2(CCCCCCC2)C1=O)NC(=O)NCc1ccco1,inconclusive: -60.5%

row,SMILES,"activity change (PNC), negative = inhibition"
1,CCS(=O)(=O)N1CCN(C(C)CCc2ccccc2)CC1 (stereo not given),inconclusive: -58.4%
2,CC(C)(C)c1ccc(OCCNC(=O)Cc2ccc(F)cc2)cc1,inconclusive: -34.6%
3,CC(=O)N1N=C(c2ccc3ccccc3c2)OC1(C)C,inconclusive: -43.2%
4,O=C(NCCN1CCOCC1)c1ccc2ccccc2n1,inconclusive: -42.3%
5,O=C(COc1ccccc1F)NNC(=O)c1ccc(N2CCCCC2)c([N+](=O)[O-])c1,inactive: -26.5%
6,Cc1c(Cl)cccc1NC(=S)N1CCOCC1,inconclusive: -31.6%
7,CCOC(=O)N1CCN(C(=O)c2ccc3c(=O)n(CCC4=CCCCC4)c(=O)[nH]c3c2)CC1,inactive: -16.2%
8,CCOC(=S)SCC(=O)N1CCc2cc(OC)ccc2C1C1C(=O)CCCC1=O (stereo not given),active: -98.9%
9,O=C1c2ccccc2C(=O)N1CCc1csc(-c2cccc(F)c2)n1,inconclusive: -43.8%
10,CC(=O)c1ccc(OCC(O)COc2ccc(C(C)=O)cc2)cc1,inconclusive: -55.7%
11,CC(C)n1c(-c2ccccc2F)n[nH]c1=S,inactive: -12.4%
12,O=C(/C=C/c1ccco1)NCC1(c2ccccc2)CCCC1,active: -109%
13,COc1ccc(/C(C)=N\NS(C)(=O)=O)c(OC)c1,active: -83.7%
14,COC(=O)c1nnn(CC(=O)NC(=O)Nc2cccc(C)c2C)c1C(=O)OC,active: -113%
15,Cn1c(=O)c2c(nc(N3CCCCCC3)n2CC(O)COc2ccccc2)n(C)c1=O (stereo not given),inactive: 34.8%
16,CCOC(=O)N1CCC(N2Cc3cccc(C(=O)NCc4ccccn4)c3C2=O)CC1,inactive: -12%
17,Cc1ccc(-c2nc(CS(=O)CC(=O)NCCN3CCOCC3)c(C)o2)cc1 (stereo not given),inconclusive: -50.1%
18,COC(=O)c1cc2c(C)c(C)c3ccccn3c-2c1C(=O)OC,inconclusive: -46.7%
19,COc1ccc(NC(=O)c2cc(-c3cc(C)ccc3O)n[nH]2)cc1Cl,inactive: -24.6%
20,CCOC(=O)C(CC)(CCC(=O)O)c1csc(N)n1 (stereo not given),inconclusive: -67.1%

row,SMILES,"activity change (PNC), negative = inhibition"
1,CCn1c(SCC(=O)Nc2ccc(Cl)cc2)nc2nc3c(cc2c1=O)CCCC3,inactive: 26.1%
2,Oc1ccc(/C=N/NC(=S)Nc2cccnc2)c(O)c1,inactive: 36.7%
3,CC(=O)c1cccc(NC(=O)NC2CC3CCCC(C2)N3CC(C)C)c1 (stereo not given),active: -100%
4,CCc1cc(-c2n[nH]c(=S)n2-c2cccc(C)c2)cs1,inactive: -20.6%
5,CCN(CC)c1ccc(/C=N/NC(=S)NCc2ccccc2)cc1,inactive: 43.7%
6,CCOC(=O)N1CCN(C(=O)CS(=O)(=O)c2cn(Cc3ccc(Cl)cc3)c3ccccc23)CC1,inconclusive: -53.6%
7,COc1ccc(CSc2nnc(C)n2N)cc1,inconclusive: -33.2%
8,O=C(COC(=O)Cc1ccc(Cl)cc1Cl)Nc1ccccc1OC(F)F,inactive: 0.596%
9,CCc1ccc(N(C2C=CS(=O)(=O)C2)S(=O)(=O)c2ccccc2)cc1 (stereo not given),inconclusive: -43.5%
10,CCOC(=O)c1cnc(Nc2nc3ccccc3o2)nc1CSC(=S)N(CC)CC,inactive: -5.89%
11,CC1Cc2ccccc2N1S(=O)(=O)c1cccc(C(=O)OCC(=O)NC2CCS(=O)(=O)C2)c1 (stereo not given),inconclusive: -36.9%
12,CCOC(=O)N1CCC(n2c(SCC(=O)N3CCC(C)CC3)nc3ccccc3c2=O)CC1,inconclusive: -48.3%
13,Cc1noc(NS(=O)(=O)c2ccc(NC(=O)CSc3n[nH]c(-c4ccccc4)n3)cc2)c1C,inactive: -16.7%
14,Oc1ccc(-c2cnns2)c(O)c1,inconclusive: -60.1%
15,Cc1ccc(C)c(-n2c(SCC(N)=O)nnc2-c2ccccn2)c1,inactive: 42.7%
16,Cc1cc(C)c(C#N)c(N2CCN(Cc3ccccc3)CC2)n1,inconclusive: -48%
17,Cc1ccc(Nc2cc(C)nc3nnnn23)cc1,inconclusive: -34%
18,CCC(=O)c1ccc(OCC(O)CN(C)C2CCCCC2)cc1 (stereo not given),inconclusive: -30.6%
19,COc1ccc(S(=O)(=O)N2CCCCC2)cc1,inactive: 3.17%
20,Cc1nc(NC(=O)CSc2nc3cccnc3n2Cc2ccccc2)sc1C,inactive: 4.67%

# Fetched one by one from the list above, three records:
row,SMILES,"activity change (PNC), negative = inhibition"
3,CC(=O)c1cccc(NC(=O)NC2CC3CCCC(C2)N3CC(C)C)c1 (stereo not given),active: -100%
10,CCOC(=O)c1cnc(Nc2nc3ccccc3o2)nc1CSC(=S)N(CC)CC,inactive: -5.89%
17,Cc1ccc(Nc2cc(C)nc3nnnn23)cc1,inconclusive: -34%
